PubChem BioAssay AID529 (NMMLSC, 2006)
Screen size: about 24,000 compounds; about 50 (0.2%) were called active. Inconclusive results, whose numbers are uncertain, are shown with a selection of clear calls.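 How the source made its calls: active means inhibition above 50%; inconclusive means compound itself fluorescent, judged against control cell fluorescence; inactive means the rest.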

Protein sequences, listed by entry. Tags and fused reporters are not part of them.
UniProt P13612, whole entry, looked up: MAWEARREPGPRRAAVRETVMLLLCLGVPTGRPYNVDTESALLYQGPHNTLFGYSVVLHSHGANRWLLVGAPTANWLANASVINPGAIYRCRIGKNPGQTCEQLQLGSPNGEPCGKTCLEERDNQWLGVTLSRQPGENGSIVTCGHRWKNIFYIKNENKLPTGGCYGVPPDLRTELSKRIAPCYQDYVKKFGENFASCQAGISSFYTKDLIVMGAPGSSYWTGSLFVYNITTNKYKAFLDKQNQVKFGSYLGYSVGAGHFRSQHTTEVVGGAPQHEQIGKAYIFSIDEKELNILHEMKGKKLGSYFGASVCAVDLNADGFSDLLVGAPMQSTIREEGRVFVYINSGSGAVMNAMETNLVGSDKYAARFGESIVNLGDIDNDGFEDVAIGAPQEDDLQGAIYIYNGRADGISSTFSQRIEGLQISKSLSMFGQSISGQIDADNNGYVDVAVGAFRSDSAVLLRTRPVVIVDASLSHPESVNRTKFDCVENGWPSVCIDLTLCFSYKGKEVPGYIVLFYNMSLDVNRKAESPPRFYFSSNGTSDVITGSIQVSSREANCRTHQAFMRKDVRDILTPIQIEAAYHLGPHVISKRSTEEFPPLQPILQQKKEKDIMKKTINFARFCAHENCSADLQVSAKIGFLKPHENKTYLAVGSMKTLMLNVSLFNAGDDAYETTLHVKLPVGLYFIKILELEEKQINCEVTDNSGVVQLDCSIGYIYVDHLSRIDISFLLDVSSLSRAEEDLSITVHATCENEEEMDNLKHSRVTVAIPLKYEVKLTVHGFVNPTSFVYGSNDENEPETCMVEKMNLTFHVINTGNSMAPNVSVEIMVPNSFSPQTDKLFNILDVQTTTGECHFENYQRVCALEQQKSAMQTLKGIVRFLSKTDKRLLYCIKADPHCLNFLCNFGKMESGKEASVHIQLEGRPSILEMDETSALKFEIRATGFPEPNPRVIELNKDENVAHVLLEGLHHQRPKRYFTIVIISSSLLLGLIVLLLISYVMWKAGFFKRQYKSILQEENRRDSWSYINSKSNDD

Molecular target: Integrin alpha-4 (Homo sapiens) (UniProt P13612)
Test: blockers of LDV-FITC ligand binding on VLA-4 – Jurkat cells, Mn2+ activated, primary screen (AID 529);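 on inhibition: 0% = Mn2+ stimulated cells lacking compound and 100% = ligand binding without Mn2+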
Details: LDV-FITC binding with Mn2+, flow cytometry; hits give high values, screened at 10 µM (by protocol), 100% = Mn2+-driven binding gain fully reversed unless noted

Structure (SMILES)	inhibition
CCN(CCNC(=O)C1CC(=O)N(CCc2ccccc2)C1)c1ccccc1 (centres undefined)	inactive: 5%
O=C1CC2(CCCCC2)Oc2ccc(O)cc21	inconclusive
Cc1ccc(CCNC(=O)c2nnn(-c3cc(C)cc(C)c3)c2N)cc1	inconclusive
CC(=O)c1sc(N2C(=O)c3oc4ccccc4c(=O)c3C2c2ccc(C)o2)nc1C (centres undefined)	inactive: 4%
Cc1cc(NC(=O)CSCc2nc(-c3cccc(Cl)c3)oc2C)no1	inactive: 5% [hits give high values, 100% = Mn2+-driven binding gain fully reversed, screened at 10 µM (by protocol)]
O=c1c2cccnc2[nH]c(=S)n1CCCN1CCN(c2ccc(F)cc2)CC1	inconclusive
COC(=O)c1cc2sccc2n1CC(=O)Nc1cc(OC)cc(OC)c1	inconclusive
CCN(CC)S(=O)(=O)c1ccc(-c2nnc3sc4cccc(C)c4n23)cc1	inconclusive
CCCCCc1nc2c(=O)[nH]c3ccccc3c2o1	inconclusive
COc1ccccc1CCNC(=O)c1cnn2c(C(F)F)cc(C)nc12	inconclusive
O=C(NCc1ccco1)C1CCN(c2nc3ccccc3n2Cc2ccc(F)cc2)CC1	inconclusive
COc1ccc(C)cc1NC(=O)c1nnn(Cc2cc(C)ccc2C)c1N	inconclusive
O=C(Cn1c(-c2cncs2)nc2ccccc21)NC1CCCC1	inconclusive
Cc1ccc(CNC(=O)c2cc3c(-c4ccc(Cl)cc4)nn(C)c3s2)o1	inconclusive
COc1ccccc1N1CCN(C(=O)c2ccc3c(=O)n(Cc4ccco4)c(=S)[nH]c3c2)CC1	inconclusive
COC(=O)C1C(=O)C2=C(CC1C)NC(C)=C(C(=O)OC1CCCCC1)C2c1ccc(N(C)C)cc1 (centres undefined)	inactive: -26%
Cc1oc(-c2ccccc2F)nc1CSCC(=O)NCc1ccc2c(c1)OCO2	inactive: 14.8%
CCOc1ccc(S(=O)(=O)Nc2ccc3c(c2)OCO3)c2cccnc12	inconclusive
CCOC(=O)C1=C(CSc2nc(C)cc(C)c2C#N)OC(N)=C(C#N)C1c1cccs1 (centres undefined)	inactive: -13%
S=c1nc(C2CC2)[nH]c2ccccc12	inconclusive

Structure (SMILES)	inhibition
CCSc1nc2c(c(=O)n1Cc1ccccc1)SC(C)C2 (centres undefined)	inconclusive
Cc1ccc2[nH]c3c(NCc4ccco4)ncnc3c2c1	inconclusive
COc1ccccc1NC(=O)C1CCCN(S(=O)(=O)c2cccc3nsnc23)C1 (centres undefined)	inconclusive
COc1ccc(-c2ccc(=O)n(Cc3cc(=O)n4ccccc4n3)n2)cc1	inconclusive
Cc1nc2sc(C(c3ccc(Cl)cc3)N3CCN(c4ccccc4F)CC3)c(O)n2n1 (centres undefined)	inconclusive
Nc1ccc(CN2CCN(c3ccc4ccccc4n3)CC2)cc1	inactive: 3%
CN1c2cccc3cccc(c23)N(C)C1(C)C	inconclusive
Cn1c(=O)cc(SCC(=O)N2CCN(C3CCCCC3)CC2)c2ccccc21	inconclusive
CN(C)c1ccc2c(c1)OC(N)=C(C#N)C2c1cccc(F)c1 (centres undefined)	inconclusive
COc1ccc(N(C)S(=O)(=O)c2ccc3c(c2)oc(=O)n3C)cc1	inconclusive
Oc1c(CN2CCc3ccccc3C2)cc(Cl)c2cccnc12	inconclusive
O=C(CCCn1c(=O)[nH]c2ccsc2c1=O)N1CCN(c2ccccn2)CC1	inconclusive
CCCC1c2ccc(C)n2CCN1C(=O)Nc1ccc(F)cc1 (centres undefined)	inconclusive
O=C(CCn1c(=O)sc2ccccc21)NCc1ccc2c(c1)OCO2	inactive: -10.5%
CN(C)c1nc(N)nc(N(c2ccccc2)c2ccccc2)n1	inactive: 1%
CCOC(=O)N1CCN(C(=O)c2cnc(Nc3ccccc3OC)c3ccccc23)CC1	inconclusive
Cc1ccc(C(c2sc3nc(C)nn3c2O)N2CCOCC2)cc1 (centres undefined)	inconclusive
CCOC(=O)CCCCC(=O)c1[nH]c(=O)[nH]c1CSc1nc2ccccc2[nH]1	active: 55%
Cc1cc2ccccc2n1CCNC(=O)c1ccccc1	inconclusive
O=C(Nc1ccc2c(c1)OCO2)c1cccc2c1C(=O)N(Cc1cccnc1)C2	inconclusive

2 of the compounds above, bar-delimited:
Structure (SMILES) | inhibition
O=C(CCn1c(=O)sc2ccccc21)NCc1ccc2c(c1)OCO2 | inactive: -10.5%
CN(C)c1nc(N)nc(N(c2ccccc2)c2ccccc2)n1 | inactive: 1%

Further records follow:

Structure (SMILES)	inhibition
O=C(C1CC1)N1CCc2cc(Br)cc(S(=O)(=O)NC3CCCCC3)c21	inconclusive
O=C(CSc1nnc(Cn2c(=O)sc3ccccc32)n1-c1ccccc1)N1CCCC1	inconclusive
CCSc1nnc(Cn2c(=O)sc3ccccc32)n1-c1ccccc1C	inconclusive
COc1ccc(-c2noc(-c3ccccc3F)n2)cc1	inconclusive
O=C(NCCN1CCN(c2ccccc2)CC1)c1cccn2c(=O)c3cc(Cl)ccc3nc12	inconclusive
COc1ccccc1NC(=O)c1cn(C)c(=O)c2cc(OC)c(OC)cc12	inconclusive
COc1ccccc1N1CCN(C(CNS(=O)(=O)c2ccccc2)c2cccnc2)CC1 (centres undefined)	inconclusive
CCOC(=O)N1CCC(NC(=O)Cn2cc3c(n2)CCCCC3)CC1	inactive: -1% [hits give high values, 100% = Mn2+-driven binding gain fully reversed, screened at 10 µM (by protocol)]
CC(=O)OCCNc1cc(N2CCN(C)CC2)c2noc3c2c1C(=O)c1ccccc1-3	inactive: 14%
O=C(Nc1ccc2c(c1)OCO2)c1ccc(Br)c(S(=O)(=O)N2CCCC2)c1	inconclusive
COC(=O)CNc1c(-c2ccccn2)nc2ccc(Br)cn12	inconclusive
Cc1oc(-c2ccccc2F)nc1CN1CCC(C(=O)NCc2cccs2)CC1	inconclusive
CCOC(=O)CNC(=O)C(Cc1ccccc1)NS(=O)(=O)c1ccc2c(c1)CCC(=O)N2 (centres undefined)	inconclusive
COC(=O)c1ccc(C2C(C(C)=O)=C(C)Nc3ncnn32)cc1 (centres undefined)	inactive: -2%
COc1cc2[nH]c(=O)n(CCC(=O)N3CCN(c4cccc(C)c4C)CC3)c(=O)c2cc1OC	inconclusive
CC(C)Cn1c(N)c(C(=O)NCc2cccs2)c2nc3ccccc3nc21	inconclusive
COc1ccccc1OCC(=O)Nc1ccc(S(=O)(=O)Nc2nc(C)cc(C)n2)cc1	inactive: -10.5%
CC(=O)N1CN(C2CCS(=O)(=O)C2)Cc2c1sc1c2CCCC1 (centres undefined)	inconclusive
Cc1cc(NC(=O)CSc2nc3c(c(=O)n2-c2ccc(Br)cc2)SCC3)no1	inconclusive
